Experimental data from article PMC8931434.

By UniProt entry, the sequences of proteins in these tests, tags left out.
UniProt P00329: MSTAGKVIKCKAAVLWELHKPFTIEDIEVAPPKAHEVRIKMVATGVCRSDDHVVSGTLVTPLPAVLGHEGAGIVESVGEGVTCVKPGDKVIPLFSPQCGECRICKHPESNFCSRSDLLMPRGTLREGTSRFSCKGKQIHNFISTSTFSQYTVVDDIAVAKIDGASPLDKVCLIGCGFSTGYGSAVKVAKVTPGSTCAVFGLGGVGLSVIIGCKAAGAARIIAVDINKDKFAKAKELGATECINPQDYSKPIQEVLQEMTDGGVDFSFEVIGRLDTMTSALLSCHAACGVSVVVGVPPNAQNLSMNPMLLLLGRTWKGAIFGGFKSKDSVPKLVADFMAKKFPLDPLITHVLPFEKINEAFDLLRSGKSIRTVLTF
UniProt O35488: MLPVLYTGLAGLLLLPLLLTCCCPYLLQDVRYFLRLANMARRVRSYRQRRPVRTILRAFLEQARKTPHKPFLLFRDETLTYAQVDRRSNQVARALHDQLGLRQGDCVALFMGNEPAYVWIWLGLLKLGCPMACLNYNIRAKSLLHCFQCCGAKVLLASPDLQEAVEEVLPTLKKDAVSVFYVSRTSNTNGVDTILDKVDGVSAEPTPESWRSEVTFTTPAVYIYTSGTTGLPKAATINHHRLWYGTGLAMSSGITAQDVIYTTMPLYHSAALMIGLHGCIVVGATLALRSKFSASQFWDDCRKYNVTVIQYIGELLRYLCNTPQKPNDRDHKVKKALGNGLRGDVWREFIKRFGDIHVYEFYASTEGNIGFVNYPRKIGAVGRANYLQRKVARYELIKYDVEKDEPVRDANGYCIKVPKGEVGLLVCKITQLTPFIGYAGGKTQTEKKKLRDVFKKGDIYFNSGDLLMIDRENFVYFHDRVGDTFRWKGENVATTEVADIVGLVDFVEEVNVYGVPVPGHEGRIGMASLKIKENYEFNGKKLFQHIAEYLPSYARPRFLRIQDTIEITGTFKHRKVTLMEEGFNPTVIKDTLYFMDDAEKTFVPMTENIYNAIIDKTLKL

Target: T1, Ceramide synthase 2 (mouse) (UniProt Q924Z4)
T1 sequence: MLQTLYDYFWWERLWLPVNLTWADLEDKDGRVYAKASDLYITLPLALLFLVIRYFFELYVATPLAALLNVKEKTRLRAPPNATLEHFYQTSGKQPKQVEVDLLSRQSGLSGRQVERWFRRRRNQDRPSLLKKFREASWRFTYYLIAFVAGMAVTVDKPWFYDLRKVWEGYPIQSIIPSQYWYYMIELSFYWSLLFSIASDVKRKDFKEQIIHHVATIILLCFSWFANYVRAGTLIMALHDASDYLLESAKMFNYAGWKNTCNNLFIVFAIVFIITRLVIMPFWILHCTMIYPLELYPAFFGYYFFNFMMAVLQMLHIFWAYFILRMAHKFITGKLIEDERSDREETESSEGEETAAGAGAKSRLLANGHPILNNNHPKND
Test: affinity purification with mass spectrometry; rabbit anti-CerS2 antibody and protein A agarose on WT mouse liver homogenate (150 mM NaCl, 20 mM Hepes pH 7.5, 1% digitonin, 4 °C), LC-MS/MS, compared with CerS2 null mouse liver; three mice per group

binding	Substance
binds	Alcohol dehydrogenase 1 (from UniProt P00329 1-375)
binds	Very long-chain acyl-CoA synthetase (from UniProt O35488 1-620)

Results are given in words; binding and its absence hold for the method and conditions named. Binding seen in cells or lysates may run through a third protein. A yes stands for co-enrichment or nearness to the bait. Other partners may have been found.
